Source: patent US7999137B2, “Pesticide bi-phenyl-amidine derivatives” (Bayer Cropscience AG, priority 2006, dated 2011)
Some of these results come from one statement about several compounds together.

Legend:
[1] = tested on: Puccinia recondita f. Sp. tritici; experiment: In vivo preventive test on Puccinia recondita f. Sp. tritici (wheat brown rust); settings: 1000 ppm of active ingredient, evaluated 10 days after the inoculation, 100% = no disease
[2] = tested on: Erysiphe graminis f.sp. hordei; experiment: In vivo preventive test on Erysiphe gramini (powdery mildew on barley); settings: 1000 ppm of active ingredient, evaluated 7 days after the inoculation, 100% = no disease
[3] = tested on: Podosphaera leucotricha; experiment: In vivo protective test on Podosphaera leucotricha (apples); settings: 100 ppm of active ingredient, evaluated 10 days after the inoculation, 100% = no disease
[4] = tested on: Sphaerotheca fuliginea; experiment: In vivo protective test on Sphaerotheca fuliginea (cucumbers); settings: 100 ppm of active ingredient, evaluated 7 days after the inoculation, 100% = no disease
[5] = tested on: Alternaria solani; experiment: In vivo protective test on Alternaria solani (leaf spot of tomato); settings: 500 ppm of active ingredient, evaluated 7 days after the inoculation, 100% = no disease
[6] = tested on: Botrytis cinerea; experiment: In vivo protective test on Botrytis cinerea (beans); settings: 500 ppm of active ingredient, lesion size 2 days after the inoculation, 100% = no disease
[7] = tested on: Uromyces appendiculatus; experiment: In vivo protective test on Uromyces appendiculatus (beans); settings: 100 ppm of active ingredient, evaluated 10 days after the inoculation, 100% = no disease

SMILES	efficacy [1] [%]	efficacy [2] [%]	other results
CCN(C)C=Nc1ccc(-c2ccc(C(C)(C)C)cc2)cc1Cl [Compound 1]	≥ 70	≥ 70	efficacy [3]: ≥ 70%; efficacy [4]: ≥ 70%
CCN(C)C=Nc1ccc(-c2ccc(C(C)(C)C)cc2)cc1C(F)(F)F [Compound 2]	≥ 70	≥ 70	–
CCN(C)C=Nc1ccc(-c2ccc(F)c(Cl)c2)cc1Cl [Compound 3]	≥ 70	–	–
CCN(C)C=Nc1ccc(-c2ccc(F)c(Cl)c2)cc1C(F)(F)F [Compound 4]	≥ 70	–	–
CCc1cc(-c2ccc(C(C)(C)C)cc2)ccc1N=CN(C)CC [Compound 7]	≥ 70	≥ 70	–
CCN(C)/C=N/c1cc(C)c(-c2ccc(C(C)(C)C)cc2)cc1C [Compound 8, N′-(4′-tert-butyl-2,5-dimethylbiphenyl-4-yl)-N-ethyl-N-methylimidoformamide]	≥ 70	≥ 70	efficacy [5]: ≥ 70%; efficacy [3]: ≥ 70%; efficacy [4]: ≥ 70%; efficacy [6]: ≥ 70%
CCc1cc(-c2ccc(F)c(Cl)c2)ccc1N=CN(C)CC [Compound 10]	≥ 70	≥ 70	–
CCN(C)C=Nc1ccc(-c2ccc(Cl)c(C(F)(F)F)c2)cc1C [Compound 16]	≥ 70	–	–
CCN(C)C=Nc1cc(C)c(-c2ccc(Cl)c(C(F)(F)F)c2)cc1C [Compound 17]	≥ 70	≥ 70	efficacy [4]: ≥ 70%
CCc1cc(-c2ccc(Cl)c(C(F)(F)F)c2)ccc1N=CN(C)CC [Compound 21]	≥ 70	≥ 70	–
CCc1cc(-c2ccc(C(F)(F)F)cc2)ccc1N=CN(C)CC [Compound 27]	–	–	efficacy [3]: ≥ 70%; efficacy [4]: ≥ 70%
CCN(C)C(S)=Nc1cc(C)c(-c2ccc(C(C)(C)C)cc2)cc1C [Compound 28]	≥ 70	≥ 70	efficacy [3]: ≥ 70%; efficacy [4]: ≥ 70%
CCN(C)C=Nc1ccc(-c2ccc(C(C)=NOC)cc2)cc1C [Compound 31]	≥ 70	≥ 70	efficacy [5]: ≥ 70%
CCN(C)C=Nc1ccc(-c2ccc(F)c(C)c2)cc1C [Compound 33]	≥ 70	≥ 70	–
CCN(C)C=Nc1ccc(-c2ccc(F)c(F)c2)cc1C [Compound 34]	≥ 70	≥ 70	–
CCN(C)C=Nc1ccc(-c2ccc(Oc3ccccc3)cc2)cc1C [Compound 35]	≥ 70	≥ 70	efficacy [5]: ≥ 70%
CCN(C)C=Nc1ccc(-c2ccc(OCc3ccccc3)cc2)cc1C [Compound 36]	–	–	efficacy [5]: ≥ 70%
CCN(C)C=Nc1cc(C)c(-c2cc(OC)c(OC)c(OC)c2)cc1C [Compound 39]	≥ 70	–	efficacy [5]: ≥ 70%
CCN(C)C=Nc1cc(C)c(-c2ccc(C=NOC)cc2)cc1C [Compound 40]	–	≥ 70	efficacy [5]: ≥ 70%; efficacy [3]: ≥ 70%; efficacy [4]: ≥ 70%; efficacy [6]: ≥ 70%
CCN(C)C=Nc1cc(C)c(-c2ccc(Cl)c(F)c2)cc1C [Compound 41]	–	–	efficacy [5]: ≥ 70%

SMILES	efficacy [1] [%]	efficacy [2] [%]	other results
CCN(C)C=Nc1cc(C)c(-c2ccc(F)c(F)c2F)cc1C [Compound 43]	–	–	efficacy [5]: ≥ 70%
CCN(C)C=Nc1ccc(-c2ccc(C=NOC)cc2)cc1Cl [Compound 64]	≥ 70	–	–
CCN(C)C=Nc1ccc(-c2ccc(COC)cc2)cc1Cl [Compound 73]	≥ 70	≥ 70	–
CCN(C)C=Nc1ccc(-c2ccc(C=NOC)cc2)cc1C(F)(F)F [Compound 76]	–	–	efficacy [5]: ≥ 70%
CCN(C)C=Nc1ccc(-c2ccc(C(C)=NOC)cc2)cc1C(F)(F)F [Compound 78]	–	–	efficacy [5]: ≥ 70%
CCN(C)C=Nc1ccc(-c2cccc(Cl)c2)c(Cl)c1 [Compound 96]	≥ 70	≥ 70	–
CCN(C)C=Nc1cc(OC)c(-c2ccc(OC)c(Cl)c2)cc1OC [Compound 97]	≥ 70	≥ 70	–
CCN(C)C=Nc1cc(OC)c(-c2ccc(C)cc2)cc1OC [Compound 98]	≥ 70	–	–
CCN(C)C=Nc1cc(C)c(-c2ccc(C(C)(C)C)cc2)cc1Cl [Compound 106]	≥ 70	≥ 70	efficacy [5]: ≥ 70%; efficacy [3]: ≥ 70%; efficacy [4]: ≥ 70%; efficacy [6]: ≥ 70%
CCN(C)C=Nc1cc(C)c(-c2ccc(Cl)c(C(F)(F)F)c2)cc1Cl [Compound 107]	≥ 70	≥ 70	–
CCN(C)C=Nc1ccc(-c2ccc(Cl)c(C)c2)cc1C [Compound 108]	≥ 70	≥ 70	–
CCN(C)C=Nc1cc(C)c(-c2ccc(Cl)c(C)c2)cc1C [Compound 109]	≥ 70	≥ 70	–
CCN(C)C=Nc1ccc(-c2ccc(Cl)c(C)c2)cc1Cl [Compound 110]	≥ 70	–	–
CCN(C)C=Nc1cc(C)c(-c2ccc(Cl)cc2C)cc1C [Compound 112]	≥ 70	≥ 70	efficacy [3]: ≥ 70%; efficacy [4]: ≥ 70%
CCN(C)C=Nc1cc(C)c(-c2ccc(OC)c(C)c2)cc1C [Compound 114]	≥ 70	≥ 70	efficacy [4]: ≥ 70%
CCN(C)C=Nc1ccc(-c2ccc(OC)c(C)c2)cc1Cl [Compound 115]	≥ 70	≥ 70	–
Cc1cc(-c2ccc(C(C)(C)C)cc2)c(C)cc1N=CN1CCCCC1 [Compound 116]	≥ 70	≥ 70	–
Cc1cc(-c2ccc(C(C)(C)C)cc2)c(C)cc1N=CN1CCCC1 [Compound 119]	–	–	efficacy [5]: ≥ 70%
Cc1cc(-c2ccc(Cl)cc2)c(C)cc1N=C1NCCCN1 [Compound 122]	≥ 70	–	efficacy [4]: ≥ 70%
Cc1cc(-c2ccc(F)cc2)c(C)cc1N=C1NCCCN1 [Compound 123]	≥ 70	≥ 70	efficacy [5]: ≥ 70%; efficacy [4]: ≥ 70%

SMILES	efficacy [1] [%]	efficacy [2] [%]	other results
Cc1cc(-c2ccc(F)cc2)c(C)cc1N=C1NCCN1 [Compound 124]	–	–	efficacy [4]: ≥ 70%
CCN(C)C=Nc1cc(C)c(-c2ccc(Cl)cc2)cc1C [Compound 125]	≥ 70	–	–
CCN(C)C=Nc1cc(C)c(-c2ccc(C)cc2)cc1C [Compound 131]	≥ 70	–	–
CCN(C)C=Nc1cc(C)c(-c2ccc(C(F)(F)F)cc2)cc1C [Compound 132]	≥ 70	≥ 70	efficacy [5]: ≥ 70%; efficacy [3]: ≥ 70%; efficacy [4]: ≥ 70%; efficacy [6]: ≥ 70%; efficacy [7]: ≥ 70%
CCN(C)C=Nc1cc(C)c(-c2cccc(Cl)c2)cc1C [Compound 133]	≥ 70	≥ 70	efficacy [5]: ≥ 70%; efficacy [3]: ≥ 70%; efficacy [4]: ≥ 70%; efficacy [6]: ≥ 70%; efficacy [7]: ≥ 70%
CCN(C)C=Nc1cc(C)c(-c2ccc(C#N)cc2)cc1C [Compound 136]	≥ 70	–	–
Cc1cc(-c2ccc(C(C)(C)C)cc2)ccc1N=C1CCCCN1 [Compound 138]	–	≥ 70	–
Cc1cc(-c2ccc(C(F)(F)F)c(Cl)c2)c(C)cc1N=CN1CCCCC1 [Compound 145]	≥ 70	–	efficacy [4]: ≥ 70%
CCN(C)C=Nc1cc(C)c(-c2ccc(C)c(Cl)c2)cc1C [Compound 146]	≥ 70	–	–
Cc1ccc(-c2cc(C)c(N=CN3CCCCC3)cc2C)cc1Cl [Compound 149]	≥ 70	–	–
CCN(C)C=Nc1cc(C)c(-c2ccc([Si](C)(C)C)cc2)cc1C [Compound 151]	≥ 70	–	–
CCN(C)C=Nc1cc(C)c(-c2ccc(C(C)C)cc2)cc1C [Compound 155]	≥ 70	–	efficacy [3]: ≥ 70%; efficacy [4]: ≥ 70%; efficacy [7]: ≥ 70%
CCCN(C)C=Nc1cc(C)c(-c2ccc(C(C)C)cc2)cc1C [Compound 156]	≥ 70	–	–
CCN(C)C=Nc1cc(C)c(-c2ccc(OC(C)(C)C)cc2)cc1C [Compound 160]	≥ 70	–	efficacy [3]: ≥ 70%; efficacy [7]: ≥ 70%
CCN(C)C=Nc1cc(C)c(-c2ccc(CC(C)C)cc2)cc1C [Compound 162]	≥ 70	–	–
CCC(C)c1ccc(-c2cc(C)c(N=CN(C)CC)cc2C)cc1 (stereo not drawn) [Compound 163]	≥ 70	–	–
CCN(C)C=Nc1cc(C)c(-c2ccc(C(C)(C)C)c(Br)c2)cc1C [Compound 164]	≥ 70	–	–
CCN(C)C=Nc1cc(C)c(-c2ccc(C3CCCCC3)cc2)cc1C [Compound 165]	≥ 70	–	–
CCN(C)C=Nc1cc(C)c(-c2ccc(C3CCCC3)cc2)cc1C [Compound 167]	≥ 70	–	–
Cc1cc(-c2ccc(C(C)(C)C)c(F)c2)c(C)cc1N=CN(C)C(C)C [Compound 169]	≥ 70	–	–
